The list shows a part of the results. Many values rest on one well or one pass, so single values are uncertain.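 The apoptosis fraction was the count of cleaved-PARP antibody-stained nuclei relative to all DNA-stained nuclei, imaged in 1,536-well plates. Screening doses were set so most cells survived, and baseline and induced cleaved-PARP levels vary greatly across cell lines.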
Assays:
Assay in all cases: cleaved PARP positive nuclei fraction relative to DMSO control; melanoma cells; higher = more apoptosis
Details in all cases: library dose: low library concentration; 72 h
CBRC034 = system: CBRC034 (line from a melanoma biopsy)
COLO792 = system: COLO792
COLO800 = system: COLO800
COLO829 = system: COLO829
G361 = system: G361
IPC-298 = system: IPC-298
IST-MEL1 = system: IST-MEL1
LOXIMVI = system: LOXIMVI
MEL-HO = system: MEL-HO
LB2518-MEL = system: LB2518-MEL

Compound	cleaved PARP positive nuclei fraction (CBRC034) [%]	cleaved PARP positive nuclei fraction (COLO792) [%]	cleaved PARP positive nuclei fraction (COLO800) [%]	cleaved PARP positive nuclei fraction (COLO829) [%]	cleaved PARP positive nuclei fraction (G361) [%]	cleaved PARP positive nuclei fraction (IPC-298) [%]	cleaved PARP positive nuclei fraction (IST-MEL1) [%]	cleaved PARP positive nuclei fraction (LOXIMVI) [%]	cleaved PARP positive nuclei fraction (MEL-HO) [%]	cleaved PARP positive nuclei fraction (LB2518-MEL) [%]
C[C@]12O[C@H](C[C@]1(O)CO)n1c3ccccc3c3c4c(c5c6ccccc6n2c5c31)CNC4=O [Lestaurtinib] + Cn1nnc2c(C(N)=O)ncn2c1=O [temozolomide] (first compound 0.004 µM, partner dose 2 µM)	86.4	181	115	95.3	124	94.8	92.1	129	81.4	
COc1cc([C@@H]2c3cc4c(cc3[C@@H](O[C@@H]3O[C@@H]5CO[C@@H](C)O[C@H]5[C@H](O)[C@H]3O)[C@H]3COC(=O)[C@H]23)OCO4)cc(OC)c1O [etoposide] + N.N.[Cl][Pt][Cl] [cisplatin] (first compound 0.02 µM, partner dose 1.6 µM)	122	103	71.9	151		127	43.6	163	43.9	210
Cn1cc(C2=C(c3cn(C4CCN(Cc5ccccn5)CC4)c4ccccc34)C(=O)NC2=O)c2ccccc21 [Enzastaurin] + NC1(c2ccc(-c3nc4ccn5c(=O)[nH]nc5c4cc3-c3ccccc3)cc2)CCC1 [MK2206] (first compound 0.8 µM, partner dose 0.4 µM)	38.6	109	27.3	89.1	43.4	80.5	38.1	306	153	
Cn1cc(C2=C(c3cn(C4CCN(Cc5ccccn5)CC4)c4ccccc34)C(=O)NC2=O)c2ccccc21 [Enzastaurin] + C[C@@H](Oc1cc(-c2cnn(C3CCNCC3)c2)cnc1N)c1c(Cl)ccc(F)c1Cl [Crizotinib] (first compound 0.8 µM, partner dose 0.2 µM)	94.3	26.6	41.5	89.4	27	175	56.2	105	125	
C[As](C)SC[C@H](NC(=O)CC[C@H](N)C(=O)O)C(=O)NCC(=O)O [Darinaparsin] + Oc1cc(-c2nc(-c3ccccc3)[nH]c2-c2ccncc2)ccc1Cl [L779450] (first compound 0.4 µM, partner dose 0.2 µM)	102	150	48.1	61.4	89.2	98.5	107	21		
Cc1cc(SCc2sc(-c3ccc(C(F)(F)F)c(F)c3)nc2C)ccc1OCC(=O)O + COc1cc2ncnc(Nc3ccc(Oc4ccccc4)cc3)c2cc1OC [SrcI1] (first compound 2 µM, partner dose 2 µM)	93.8	105	147	46.7	134	68.7	138	67.9		
C[C@]12O[C@H](C[C@]1(O)CO)n1c3ccccc3c3c4c(c5c6ccccc6n2c5c31)CNC4=O [Lestaurtinib] + CCc1ccc(CCOc2ccc(CC3SC(=O)NC3=O)cc2)nc1 [pioglitazone] (first compound 0.004 µM, partner dose 2 µM)		67.4	105	121	64.6	62.3	73	89.1		82.1
COc1cc([C@@H]2c3cc4c(cc3[C@@H](O[C@@H]3O[C@@H]5CO[C@@H](C)O[C@H]5[C@H](O)[C@H]3O)[C@H]3COC(=O)[C@H]23)OCO4)cc(OC)c1O [etoposide] + C[As](C)SC[C@H](NC(=O)CC[C@H](N)C(=O)O)C(=O)NCC(=O)O [Darinaparsin] (first compound 0.02 µM, partner dose 0.4 µM)	72.5	45.7	106		103	125	116	50.1	88.4	49.5
C[As](C)SC[C@H](NC(=O)CC[C@H](N)C(=O)O)C(=O)NCC(=O)O [Darinaparsin] + COc1cc(N2CCC(N3CCN(C)CC3)CC2)ccc1Nc1ncc(Cl)c(Nc2ccccc2S(=O)(=O)C(C)C)n1 [NVP-TAE684] (first compound 0.4 µM, partner dose 0.08 µM)	103	112	104	49.3	24	84.8	127	138		
N#CC[C@H](C1CCCC1)n1cc(-c2ncnc3[nH]ccc23)cn1 [ruxolitinib] + C[C@]12O[C@H](C[C@]1(O)CO)n1c3ccccc3c3c4c(c5c6ccccc6n2c5c31)CNC4=O [Lestaurtinib] (first compound 1 µM, partner dose 0.004 µM)	58.9	89.9	78.7	93.9	110	89.6	69.2	69.5	84.7	83.8
N.N.[Cl][Pt][Cl] [cisplatin] + CC(=O)c1c(C)c2cnc(Nc3ccc(N4CCNCC4)cn3)nc2n(C2CCCC2)c1=O [palbociclib] (first compound 1.6 µM, partner dose 0.04 µM)	82.7	129	101	71.4	125	405	57	20.5	59.3	61.6
Cn1cc(C2=C(c3cn(C4CCN(Cc5ccccn5)CC4)c4ccccc34)C(=O)NC2=O)c2ccccc21 [Enzastaurin] + N.N.[Cl][Pt][Cl] [cisplatin] (first compound 0.8 µM, partner dose 1.6 µM)	127	73.8	69	132	108	356	169	38.2	82.7	
OCc1c[nH]c2ccccc12 [Indole-3-carbinol] + O=C(Oc1ccc([N+](=O)[O-])cc1)N1CCC(C(O)(c2ccc3c(c2)OCO3)c2ccc3c(c2)OCO3)CC1 [JZL184] (first compound 0.8 µM, partner dose 1 µM)		128	84.1	151	117	69.9	99.7	147		64.6
Cn1c(=O)n(-c2ccc(C(C)(C)C#N)cc2)c2c3cc(-c4cnc5ccccc5c4)ccc3ncc21 + N.N.[Cl][Pt][Cl] [cisplatin] (first compound 0.004 µM, partner dose 1.6 µM)	97	163	109	191	94.9	84.8	72.6	115	155	
COc1ccc(COc2ccc(Cc3cnc(N)nc3N)cc2OC)cc1 + O=C(Oc1ccc([N+](=O)[O-])cc1)N1CCC(C(O)(c2ccc3c(c2)OCO3)c2ccc3c(c2)OCO3)CC1 [JZL184] (first compound 1 µM, partner dose 1 µM)	464	124	182	97.8	114	42.3	84.8	60.2		
Cn1sc(=O)n(Cc2ccccc2)c1=O + C[As](C)SC[C@H](NC(=O)CC[C@H](N)C(=O)O)C(=O)NCC(=O)O [Darinaparsin] (first compound 0.4 µM, partner dose 0.4 µM)	89.3	100	153	45.6	83.4	40.4	127	110	69.6	227
C=CCn1c(=O)c2cnc(Nc3ccc(N4CCN(C)CC4)cc3)nc2n1-c1cccc(C(C)(C)O)n1 + C/C(O)=C(\C#N)C(=O)Nc1cc(Br)ccc1Br [LFM-A13] (first compound 0.02 µM, partner dose 2 µM)	97.7	98.5	108	75.6	132	166	40.3	107		
C=C(c1ccc(C(=O)O)cc1)c1cc2c(cc1C)C(C)(C)CCC2(C)C [Bexarotene] + Cc1cc(SCc2sc(-c3ccc(C(F)(F)F)c(F)c3)nc2C)ccc1OCC(=O)O [GW0742] (first compound 2 µM, partner dose 2 µM)		195	82.4	84.9	158	47.4	99.4	89.4		68.8
C[C@]12O[C@H](C[C@]1(O)CO)n1c3ccccc3c3c4c(c5c6ccccc6n2c5c31)CNC4=O [Lestaurtinib] + CCN(CC)CCCCNc1ncc2cc(-c3cc(OC)cc(OC)c3)c(NC(=O)NC(C)(C)C)nc2n1 [PD173074] (first compound 0.004 µM, partner dose 0.1 µM)		51.5	167	77.6	163	49.5	107	33.6		64.8
NC1(c2ccc(-c3nc4ccn5c(=O)[nH]nc5c4cc3-c3ccccc3)cc2)CCC1 + C/C(O)=C(\C#N)C(=O)Nc1cc(Br)ccc1Br [LFM-A13] (first compound 0.4 µM, partner dose 2 µM)		138	31.3	94.4	79.4	60.4	28	119		74.2
C[C@]12O[C@H](C[C@]1(O)CO)n1c3ccccc3c3c4c(c5c6ccccc6n2c5c31)CNC4=O [Lestaurtinib] + O=C(O)C(=O)Nc1sc2c(c1C(=O)O)CCNC2 [TCS401] (first compound 0.004 µM, partner dose 1.66667 µM)		67.2	104	82.3	137	65.6	35.9	157		125
Cn1cnc2c(F)c(Nc3ccc(Br)cc3Cl)c(C(=O)NOCCO)cc21 [selumetinib] + C/C(O)=C(\C#N)C(=O)Nc1cc(Br)ccc1Br [LFM-A13] (first compound 0.015 µM, partner dose 2 µM)		70.7	41.2	135	81.3	223	79.1	95.8		113

Some of the entries above in a different format:
Compound,cleaved PARP positive nuclei fraction (CBRC034) [%],cleaved PARP positive nuclei fraction (COLO792) [%],cleaved PARP positive nuclei fraction (COLO800) [%],cleaved PARP positive nuclei fraction (COLO829) [%],cleaved PARP positive nuclei fraction (G361) [%],cleaved PARP positive nuclei fraction (IPC-298) [%],cleaved PARP positive nuclei fraction (IST-MEL1) [%],cleaved PARP positive nuclei fraction (LOXIMVI) [%],cleaved PARP positive nuclei fraction (MEL-HO) [%],cleaved PARP positive nuclei fraction (LB2518-MEL) [%]
"N.N.[Cl][Pt][Cl] [cisplatin] + CC(=O)c1c(C)c2cnc(Nc3ccc(N4CCNCC4)cn3)nc2n(C2CCCC2)c1=O [palbociclib] (first compound 1.6 µM, partner dose 0.04 µM)",82.7,129,101,71.4,125,405,57,20.5,59.3,61.6
"Cn1sc(=O)n(Cc2ccccc2)c1=O + C[As](C)SC[C@H](NC(=O)CC[C@H](N)C(=O)O)C(=O)NCC(=O)O [Darinaparsin] (first compound 0.4 µM, partner dose 0.4 µM)",89.3,100,153,45.6,83.4,40.4,127,110,69.6,227
"C[C@]12O[C@H](C[C@]1(O)CO)n1c3ccccc3c3c4c(c5c6ccccc6n2c5c31)CNC4=O [Lestaurtinib] + CCN(CC)CCCCNc1ncc2cc(-c3cc(OC)cc(OC)c3)c(NC(=O)NC(C)(C)C)nc2n1 [PD173074] (first compound 0.004 µM, partner dose 0.1 µM)",,51.5,167,77.6,163,49.5,107,33.6,,64.8
"C[C@]12O[C@H](C[C@]1(O)CO)n1c3ccccc3c3c4c(c5c6ccccc6n2c5c31)CNC4=O [Lestaurtinib] + O=C(O)C(=O)Nc1sc2c(c1C(=O)O)CCNC2 [TCS401] (first compound 0.004 µM, partner dose 1.66667 µM)",,67.2,104,82.3,137,65.6,35.9,157,,125
"Cn1cnc2c(F)c(Nc3ccc(Br)cc3Cl)c(C(=O)NOCCO)cc21 [selumetinib] + C/C(O)=C(\C#N)C(=O)Nc1cc(Br)ccc1Br [LFM-A13] (first compound 0.015 µM, partner dose 2 µM)",,70.7,41.2,135,81.3,223,79.1,95.8,,113
